{"source": "patent US6224857A", "about": "“Pharmaceutical preparations comprised of salts of hyaluronic acid with local anaesthetics” (Fidia, S.p.A., priority 1996, dated 2001)", "tested_on": "rabbit cornea", "experiment": "Corneal anaesthesia in rabbit (blinking reflex, Camougis and Tankman method)", "assay_type": "in vivo", "details": "rabbit eye, reference Lidocaine HCl = 100", "procedure": "[…] of solution was instilled in the conjunctival sac. The blinking reflex, tested with a bristle, was measured before instillation and then every 5-10 minutes until one hour after treatment. At each test time the degree of anaesthesia was expressed by means of a score of up to 10 given by the number of stimulations before the eye-blink reflex was obtained. The overall anaesthetic effect for each compound was then quantified by the area under curve (AUC) of the degree of anaesthesia over time.", "note": "Structures can show the parent of a compound that is named as a salt.", "data": [{"molecule": "CCN(CC)CC(=O)Nc1c(C)cccc1C", "note": "[Lidocaine HCl, lidocaine hydrochloride]", "values": [{"measurement": "Anaesthesia (AUC)", "setting": "Table 1, dose 1% (as hydrochloride)", "value": 100}, {"measurement": "Anaesthesia (AUC)", "setting": "Table 4, dose 0.125%, alkaline salts", "value": 100}]}]}
